# Values of other authors as cited in patent US20120064159A1, “Multilayer Oral Tablets Containing a Non-Steroidal Anti-Inflammatory Drug and/or Acetaminophen” (Aptapharma, Inc., priority 2009, published 2012).
# Conditions: reportedly required
compound,measurement,value
"COc1ccc2cc([C@H](C)C(=O)O)ccc2c1 [naproxen, (S)-6-methoxy-methyl-2-naphthaleneacetic acid]",Plasma naproxen concentrations required for anti-inflammatory or analgesic effects,30 to 90 µg/mL
